# Measured data: PubChem BioAssay AID1259308 (NCATS, 2017)
# Test: 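Candidate targets for better recombinant protein yield in mammalian cells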 (primary screen)
# System: human HEK293 embryonic kidney cells stably expressing firefly luciferase (HEK-CMV-Luc2-Hygro)
# Reagents: single siRNA against human genes, 0.8 pmol siRNA per well
# Time to read-out: 72 h
# Measurement: 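Luciferase light (ONE-Glo) measured on one replicate plate set and viability (CellTiter-Glo) on the other, scaled to a negative control siRNA, with robust z-scores and luciferase per cell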
# Scale: total luciferase, z-score and total luciferase, % of control: higher = more reporter protein produced; luciferase per cell, z-score: higher = more reporter output per viable cell; viable cells, % of control: higher = more viable cells
# Rule for the call: 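An siRNA counts as active if its total luciferase robust z-score exceeds 3; genes with two or more such siRNAs out of three were retested with fresh siRNAs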
# Meaning of the calls: active = raised luciferase; inactive = no rise
# In all, the deposit lists about 59,000 reagents; this is an unselected part. About 1,510 of all reagents (2.6%) were called active. 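Calls use total luciferase alone and ignore viability, so some active siRNAs may act by altering cell number.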 Entries without a mark were called inactive. Reagents against one gene are numbered here. Reagent sequences are not shown.
Target gene,siRNA no.,"total luciferase, z-score","total luciferase, % of control","luciferase per cell, z-score","viable cells, % of control"
SLC29A3,1,0.512,92.1,0.521,89.7
SLC29A3,2,1.89,119,1.87,81.6
SLC29A3,3,0.862,99,0.454,98.2
ZNF345,1,-1.5,52,-2.03,99.3
ZNF345,2,-0.524,71.5,-0.576,92.9
ZNF345,3,0.0279,82.4,0.552,79.7
LLPHP3,1,-0.248,77,-0.0619,87.4
LLPHP3,2,-1.31,55.8,-1.67,96.7
LLPHP3,3,0.985,101,1.94,68.1
ETV7,1,-0.667,68.6,-1.04,101
ETV7,2,-1.22,57.6,-1.53,96.2
ETV7,3,-0.35,74.9,0.279,77.8
BEX5,1,-0.0979,79.9,0.156,85.7
BEX5,2,0.594,93.7,0.209,99.1
BEX5,3,1.35,109,0.709,101
TIRAP,1,0.206,86,-0.392,107
TIRAP,2,2.64,134,1.46,102
TIRAP,3,0.082,83.5,-0.117,96.2
CCNL2,1,-0.295,76,-0.553,98.3
CCNL2,2,-0.101,79.9,-0.242,95.1
CCNL2,3,-0.203,77.8,0.178,83
SLC45A2,1,-0.185,78.2,-0.255,93.5
SLC45A2,2,-0.749,67,-0.595,87.6
SLC45A2,3,-2.3,36.1,-2.02,68.6
REXO1,1,-1.17,58.5,-0.796,80.6
REXO1,2,-0.848,65,-0.668,86.6
REXO1,3,0.837,98.5,0.292,102
NRP1,1,-0.588,70.2,-1.09,105
NRP1,2,-1.9,44.2,-2.45,94
NRP1,3,0.242,86.7,-0.406,108
B4GALT5,1,2.51,132,1.8,91.7
B4GALT5,2,-0.11,79.7,-0.276,95.8
B4GALT5,3,-0.909,63.8,-0.0995,73.2
NOX3,1,-0.249,76.9,-0.43,96.3
NOX3,2,-0.832,65.3,-1.07,96.8
NOX3,3,-0.476,72.4,-0.718,97.8
KIF12,1,1.58,113,2.07,73.5
KIF12,2,0.0815,83.5,-0.0626,94.9
KIF12,3,-0.426,73.4,-0.811,102
TOP2B,1,0.507,92,-0.384,114
TOP2B,2,-0.331,75.3,0.0263,83.6
TOP2B,3,-0.301,75.9,-0.556,98.2
KARS1,1,-0.747,67,0.0144,74.6
KARS1,2,-1.6,50,-1.42,81.2
KARS1,3,-2.23,37.5,-2.04,71.6
ZNF69,1,-1.62,49.7,-1.24,76.9
ZNF69,2,0.0094,82.1,0.757,75.1
ZNF69,3,1.19,106,1.21,85.7
AMN,1,2.52,132,1.75,92.9
AMN,2,0.216,86.2,-0.311,105
AMN,3,6.62 (active),214,4.77,68
FEZF2,1,-0.282,76.3,-0.506,97.4
FEZF2,2,1.17,105,1.19,85.8
FEZF2,3,-0.688,68.2,-0.693,91.5
RANBP1,1,-0.298,76,-0.343,92.9
RANBP1,2,-0.719,67.6,-1.59,115
RANBP1,3,1.83,118,1.13,98.3
